Measurements: publication PMC7930037

Molecular target: T1, WW domain-binding protein 2 (endogenous) (human (endogenous in LO2)) (UniProt Q969T9)
T1 sequence: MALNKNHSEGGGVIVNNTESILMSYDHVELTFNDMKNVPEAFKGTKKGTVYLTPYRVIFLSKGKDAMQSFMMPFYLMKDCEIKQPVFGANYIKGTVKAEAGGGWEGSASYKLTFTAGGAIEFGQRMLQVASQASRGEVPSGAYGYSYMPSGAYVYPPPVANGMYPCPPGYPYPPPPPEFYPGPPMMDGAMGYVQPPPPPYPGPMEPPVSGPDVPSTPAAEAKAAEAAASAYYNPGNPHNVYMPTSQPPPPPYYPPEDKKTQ
Test: affinity purification with mass spectrometry; whole protein of LO2 cells incubated with anti-WBP2 antibody overnight; eluate electrophoresed, silver-stained, differing bands cut out for LC-MS/MS; anti-IgG as negative control

**Q.** Which binding does the source give for “AMPK complex (endogenous, LO2 cells) (human (endogenous in LO2))” here?
**A.** The binding was “binds”.

Results are given in words; binding and its absence hold for the method and conditions named. In cells and extracts the contact can be indirect. Here binding means that the protein was enriched with, or labelled near, the bait; the list need not be complete.
